Here are results for 18 compounds from patent publication US5246860A, “Tracer chemicals for use in monitoring subterranean fluids” (Union Oil Company of California, priority 1992, dated 1993).

A short description of one series: HPLC analysis of acidic tracers (benzene polycarboxylic acids; ion pair reversed phase, UV 215 nm): detection limits. Particulars: 25 μl injection, estimated for signal to noise ratio of three.
Regarding `O=C(O)c1cccc(C(=O)O)c1` [Isophthalic acid], the “Detection Limit (Multiple Acidic Tracer Analysis)” value is recorded as 15 ppb.
Still for that read-out and setting: for `O=C(O)c1ccc(C(=O)O)cc1` [Terephthalic acid] the value was 20 ppb; for `O=C(O)c1cc(C(=O)O)c(C(=O)O)cc1C(=O)O` [1,2,4,5 Benzene tetracarboxylic acid], 15 ppb.

A further series is described as follows: HPLC analysis of three basic aromatic tracers (reversed phase, UV 253 nm): detection limits. As to conditions: 25 μl injection, estimated for signal to noise ratio of three.
Turning to `c1ccncc1` [Pyridine], the “Detection Limit (Multiple Basic Tracer Analysis)” value is 200 ppb.
Regarding `Nc1ccccc1` [Aniline], the “Detection Limit (Multiple Basic Tracer Analysis)” value was 350 ppb.
`CCc1ccc(C)nc1` [2-Methyl-5-ethylpyridine]: the “Detection Limit (Multiple Basic Tracer Analysis)” value is recorded as 500 ppb.

Another series is described as follows: HPLC procedure for simultaneously analyzing 13 aromatic tracers (ion pair reversed phase, UV 224 nm): detection limits. Particulars: 25 μl injection, estimated for signal to noise ratio of three.
Consider `O=S(=O)(O)c1cccc2ccccc12` [1-Naphthalene sulfonic acid], for which the “Detection Limit (Multiple Tracer Analysis)” value is recorded as 12 ppb.
For the compound `Cc1ccc(C(=O)O)cc1` [p-Methylbenzoic acid], the “Detection Limit (Multiple Tracer Analysis)” value was 18 ppb.
Regarding `Cc1ccc(C)c(S(=O)(=O)O)c1` [2,5-Dimethylbenzene sulfonic acid], the “Detection Limit (Multiple Tracer Analysis)” value is on record as 50 ppb.
With `O=C(O)c1cccc(F)c1` [m-Fluorobenzoic acid, reference compound], the “Detection Limit (Multiple Tracer Analysis)” value is on record as 17 ppb.
In the case of `Cc1ccccc1C(=O)O` [o-Methylbenzoic acid], the “Detection Limit (Multiple Tracer Analysis)” value is recorded as 30 ppb.
With `Cc1ccc(C(=O)O)cc1C` [3,4-Dimethylbenzoic acid, reference compound], the “Detection Limit (Multiple Tracer Analysis)” value is 60 ppb.
`O=S(=O)(O)c1ccc2cc(S(=O)(=O)O)ccc2c1` [2,6-Naphthalenedisulfonic acid]: the “Detection Limit (Multiple Tracer Analysis)” value is on record as 5 ppb.
As for `Cc1cccc(C(=O)O)c1` [m-Methylbenzoic acid], the “Detection Limit (Multiple Tracer Analysis)” value is 24 ppb.
Take `Cc1cccc(C(=O)O)c1C` [2,3-Dimethylbenzoic acid, reference compound]: the “Detection Limit (Multiple Tracer Analysis)” value is 43 ppb.
For the compound `O=S(=O)(O)c1ccc2ccccc2c1` [2-Naphthalene sulfonic acid], the “Detection Limit (Multiple Tracer Analysis)” value is on record as 5 ppb.
Turning to `Cc1ccc(S(=O)(=O)O)c(C)c1` [2,4-Dimethylbenzene sulfonic acid], the “Detection Limit (Multiple Tracer Analysis)” value was 36 ppb.
As to `O=S(=O)(O)c1cccc2c(S(=O)(=O)O)cccc12` [1,5-Naphthalenedisulfonic acid], the “Detection Limit (Multiple Tracer Analysis)” value was 6 ppb.
